Test results reported in the supplement of paper PMC12595434, “Development of retinoid nuclear receptor pathway antagonists through targeting aldehyde dehydrogenase 1A3” (iScience, 2025).
This is one part of the list. The data scatter; read single values as rough.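 Tm was set to 64 °C where no melting was found, and many curves are irregular.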

Sequences of proteins named here, by UniProt entry; tags and fusion partners are left off. A change or cut given only in a name is not applied to a line headed by its entry.
UniProt Q9NW81: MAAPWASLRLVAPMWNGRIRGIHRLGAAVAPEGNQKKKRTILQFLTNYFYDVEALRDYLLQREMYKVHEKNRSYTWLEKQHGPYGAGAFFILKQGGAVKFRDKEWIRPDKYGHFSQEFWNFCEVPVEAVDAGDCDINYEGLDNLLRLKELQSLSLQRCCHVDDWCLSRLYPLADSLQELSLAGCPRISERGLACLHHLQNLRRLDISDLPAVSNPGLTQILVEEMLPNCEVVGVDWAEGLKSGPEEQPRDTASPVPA
UniProt Q9UDY8: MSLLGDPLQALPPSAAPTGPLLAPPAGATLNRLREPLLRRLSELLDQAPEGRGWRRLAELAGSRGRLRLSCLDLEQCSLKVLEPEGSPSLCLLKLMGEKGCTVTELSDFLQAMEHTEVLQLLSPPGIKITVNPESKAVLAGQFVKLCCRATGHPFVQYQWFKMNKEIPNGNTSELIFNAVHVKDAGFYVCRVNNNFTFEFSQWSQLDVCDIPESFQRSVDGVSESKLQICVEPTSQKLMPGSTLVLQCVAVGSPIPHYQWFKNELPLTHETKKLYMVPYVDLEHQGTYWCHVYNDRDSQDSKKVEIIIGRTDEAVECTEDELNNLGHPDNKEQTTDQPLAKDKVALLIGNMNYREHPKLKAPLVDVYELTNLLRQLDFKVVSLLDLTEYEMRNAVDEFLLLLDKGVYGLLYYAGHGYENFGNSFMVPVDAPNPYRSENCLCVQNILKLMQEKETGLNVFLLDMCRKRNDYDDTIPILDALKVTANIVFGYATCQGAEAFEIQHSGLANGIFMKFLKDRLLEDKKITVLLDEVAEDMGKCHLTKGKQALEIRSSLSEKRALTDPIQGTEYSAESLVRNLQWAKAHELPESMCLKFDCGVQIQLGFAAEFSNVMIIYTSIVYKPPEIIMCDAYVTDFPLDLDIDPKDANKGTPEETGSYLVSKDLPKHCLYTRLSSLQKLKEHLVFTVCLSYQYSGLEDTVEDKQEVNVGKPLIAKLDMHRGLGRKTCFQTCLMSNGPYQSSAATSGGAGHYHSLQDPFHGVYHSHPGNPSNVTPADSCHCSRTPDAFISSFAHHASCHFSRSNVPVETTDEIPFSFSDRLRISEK
UniProt Q9P0S2: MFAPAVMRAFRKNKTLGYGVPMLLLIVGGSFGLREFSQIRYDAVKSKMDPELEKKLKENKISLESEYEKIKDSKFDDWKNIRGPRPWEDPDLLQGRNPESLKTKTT
UniProt Q9P031: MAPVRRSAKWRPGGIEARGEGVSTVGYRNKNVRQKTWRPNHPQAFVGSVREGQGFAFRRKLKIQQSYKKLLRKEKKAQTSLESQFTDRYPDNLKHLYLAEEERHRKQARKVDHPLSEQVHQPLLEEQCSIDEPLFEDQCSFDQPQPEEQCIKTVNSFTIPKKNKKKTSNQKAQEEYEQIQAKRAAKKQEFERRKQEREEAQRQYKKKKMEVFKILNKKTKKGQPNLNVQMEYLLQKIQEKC
UniProt Q9UBB9: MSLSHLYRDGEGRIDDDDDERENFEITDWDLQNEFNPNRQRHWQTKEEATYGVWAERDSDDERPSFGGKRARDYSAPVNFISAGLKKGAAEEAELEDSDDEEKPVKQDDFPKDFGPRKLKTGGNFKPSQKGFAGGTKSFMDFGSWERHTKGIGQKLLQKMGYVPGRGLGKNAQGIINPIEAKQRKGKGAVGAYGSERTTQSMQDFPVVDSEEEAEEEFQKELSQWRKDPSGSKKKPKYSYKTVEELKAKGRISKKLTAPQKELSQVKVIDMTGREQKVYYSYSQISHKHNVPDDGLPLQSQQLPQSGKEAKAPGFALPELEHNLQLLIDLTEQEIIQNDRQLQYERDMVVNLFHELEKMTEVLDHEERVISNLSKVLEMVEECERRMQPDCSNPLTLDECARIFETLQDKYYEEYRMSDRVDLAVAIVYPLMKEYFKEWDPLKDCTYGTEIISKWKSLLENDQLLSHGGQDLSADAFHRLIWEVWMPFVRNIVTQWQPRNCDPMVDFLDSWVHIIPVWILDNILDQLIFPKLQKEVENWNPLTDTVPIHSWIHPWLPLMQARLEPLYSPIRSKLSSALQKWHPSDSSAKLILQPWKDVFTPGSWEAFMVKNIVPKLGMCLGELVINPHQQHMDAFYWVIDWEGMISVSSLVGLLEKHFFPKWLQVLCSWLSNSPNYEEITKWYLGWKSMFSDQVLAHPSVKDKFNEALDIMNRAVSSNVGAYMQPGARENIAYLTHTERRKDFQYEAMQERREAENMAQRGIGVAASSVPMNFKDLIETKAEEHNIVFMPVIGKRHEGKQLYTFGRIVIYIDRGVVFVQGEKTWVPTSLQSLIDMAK
UniProt Q9NXE4: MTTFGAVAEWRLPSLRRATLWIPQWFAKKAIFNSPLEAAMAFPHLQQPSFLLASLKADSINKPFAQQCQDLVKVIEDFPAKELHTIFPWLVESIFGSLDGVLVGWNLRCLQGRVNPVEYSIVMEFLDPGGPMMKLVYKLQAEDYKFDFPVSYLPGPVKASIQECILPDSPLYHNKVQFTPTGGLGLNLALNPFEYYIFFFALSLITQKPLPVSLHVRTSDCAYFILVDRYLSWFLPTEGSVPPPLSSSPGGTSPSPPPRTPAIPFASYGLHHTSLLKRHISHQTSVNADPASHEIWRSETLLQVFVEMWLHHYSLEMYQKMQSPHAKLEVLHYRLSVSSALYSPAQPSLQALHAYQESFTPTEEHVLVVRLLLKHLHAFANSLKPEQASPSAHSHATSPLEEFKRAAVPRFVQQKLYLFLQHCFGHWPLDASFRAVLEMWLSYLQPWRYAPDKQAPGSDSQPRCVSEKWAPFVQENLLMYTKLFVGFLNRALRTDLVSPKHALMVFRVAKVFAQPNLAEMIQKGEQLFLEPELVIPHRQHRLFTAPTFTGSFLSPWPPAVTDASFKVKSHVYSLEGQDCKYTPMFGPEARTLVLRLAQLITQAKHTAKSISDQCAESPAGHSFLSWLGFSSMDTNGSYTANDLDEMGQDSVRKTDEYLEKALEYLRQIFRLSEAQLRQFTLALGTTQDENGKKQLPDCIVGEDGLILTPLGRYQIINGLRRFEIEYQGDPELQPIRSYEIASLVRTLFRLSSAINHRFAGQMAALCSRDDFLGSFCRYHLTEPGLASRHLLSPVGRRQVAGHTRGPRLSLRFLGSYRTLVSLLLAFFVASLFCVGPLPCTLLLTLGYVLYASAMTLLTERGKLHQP
UniProt Q9P2X0: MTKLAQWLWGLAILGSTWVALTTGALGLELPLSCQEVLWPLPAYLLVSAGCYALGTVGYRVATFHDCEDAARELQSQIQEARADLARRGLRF
UniProt Q9NYJ1, whole entry: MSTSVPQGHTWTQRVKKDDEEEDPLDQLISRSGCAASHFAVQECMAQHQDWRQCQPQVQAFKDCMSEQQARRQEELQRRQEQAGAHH
UniProt Q9P2N6: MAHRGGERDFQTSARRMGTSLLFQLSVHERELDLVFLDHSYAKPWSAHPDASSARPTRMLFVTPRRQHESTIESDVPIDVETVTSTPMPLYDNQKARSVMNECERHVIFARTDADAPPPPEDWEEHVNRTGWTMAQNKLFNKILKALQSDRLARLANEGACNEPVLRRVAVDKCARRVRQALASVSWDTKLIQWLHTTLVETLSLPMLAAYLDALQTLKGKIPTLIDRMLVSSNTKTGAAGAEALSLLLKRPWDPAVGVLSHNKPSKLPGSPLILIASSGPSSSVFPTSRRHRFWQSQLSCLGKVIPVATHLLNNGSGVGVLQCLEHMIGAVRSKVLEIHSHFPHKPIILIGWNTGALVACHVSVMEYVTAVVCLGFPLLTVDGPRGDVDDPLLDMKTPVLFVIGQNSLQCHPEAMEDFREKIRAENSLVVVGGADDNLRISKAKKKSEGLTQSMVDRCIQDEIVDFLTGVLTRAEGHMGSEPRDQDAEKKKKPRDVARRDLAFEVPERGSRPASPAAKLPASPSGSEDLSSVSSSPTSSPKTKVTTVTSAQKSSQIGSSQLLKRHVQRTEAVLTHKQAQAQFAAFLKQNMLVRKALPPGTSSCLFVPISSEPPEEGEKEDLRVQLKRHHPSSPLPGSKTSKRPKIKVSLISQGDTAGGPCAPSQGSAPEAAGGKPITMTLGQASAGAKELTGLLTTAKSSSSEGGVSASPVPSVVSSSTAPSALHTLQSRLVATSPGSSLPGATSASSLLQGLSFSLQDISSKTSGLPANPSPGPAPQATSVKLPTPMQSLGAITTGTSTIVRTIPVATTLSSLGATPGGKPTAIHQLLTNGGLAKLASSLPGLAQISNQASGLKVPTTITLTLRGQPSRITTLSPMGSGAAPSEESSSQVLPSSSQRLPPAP
UniProt Q9UBD5: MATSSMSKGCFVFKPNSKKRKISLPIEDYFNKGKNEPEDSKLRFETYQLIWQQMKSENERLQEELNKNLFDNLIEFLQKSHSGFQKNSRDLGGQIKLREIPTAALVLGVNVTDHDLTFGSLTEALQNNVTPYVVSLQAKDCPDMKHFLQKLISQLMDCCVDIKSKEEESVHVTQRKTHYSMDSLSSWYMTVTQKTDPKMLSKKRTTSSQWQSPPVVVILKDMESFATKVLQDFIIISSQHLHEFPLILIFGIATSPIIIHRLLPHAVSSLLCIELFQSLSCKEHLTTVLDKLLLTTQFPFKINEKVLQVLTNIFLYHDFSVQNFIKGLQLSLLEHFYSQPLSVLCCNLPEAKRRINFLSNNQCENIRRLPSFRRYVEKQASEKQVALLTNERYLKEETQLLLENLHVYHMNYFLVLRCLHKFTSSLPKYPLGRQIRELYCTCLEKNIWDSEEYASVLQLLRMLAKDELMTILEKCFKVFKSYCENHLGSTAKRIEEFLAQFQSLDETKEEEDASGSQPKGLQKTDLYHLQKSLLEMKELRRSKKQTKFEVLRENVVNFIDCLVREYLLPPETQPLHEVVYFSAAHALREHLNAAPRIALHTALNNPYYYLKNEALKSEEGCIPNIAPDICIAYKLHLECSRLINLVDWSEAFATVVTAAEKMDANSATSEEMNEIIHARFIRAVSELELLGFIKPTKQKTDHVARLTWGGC
UniProt Q9NYV6: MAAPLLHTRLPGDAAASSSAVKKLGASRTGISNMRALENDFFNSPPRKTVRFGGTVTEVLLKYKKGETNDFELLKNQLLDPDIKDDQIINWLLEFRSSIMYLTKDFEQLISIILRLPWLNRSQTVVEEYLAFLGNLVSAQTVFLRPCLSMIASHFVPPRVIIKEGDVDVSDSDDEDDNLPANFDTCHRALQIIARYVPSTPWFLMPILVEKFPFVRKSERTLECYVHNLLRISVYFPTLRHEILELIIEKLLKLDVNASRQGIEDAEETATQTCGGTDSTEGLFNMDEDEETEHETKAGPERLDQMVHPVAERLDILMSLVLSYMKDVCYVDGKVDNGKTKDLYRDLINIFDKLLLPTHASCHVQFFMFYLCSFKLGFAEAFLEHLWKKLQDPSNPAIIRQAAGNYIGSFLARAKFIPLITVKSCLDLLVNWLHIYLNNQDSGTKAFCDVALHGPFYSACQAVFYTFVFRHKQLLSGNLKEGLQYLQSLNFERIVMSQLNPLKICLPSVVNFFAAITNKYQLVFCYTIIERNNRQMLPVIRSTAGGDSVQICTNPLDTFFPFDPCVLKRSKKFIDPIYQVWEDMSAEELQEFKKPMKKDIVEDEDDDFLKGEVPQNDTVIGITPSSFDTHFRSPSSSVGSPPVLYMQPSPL
UniProt Q9NYZ3: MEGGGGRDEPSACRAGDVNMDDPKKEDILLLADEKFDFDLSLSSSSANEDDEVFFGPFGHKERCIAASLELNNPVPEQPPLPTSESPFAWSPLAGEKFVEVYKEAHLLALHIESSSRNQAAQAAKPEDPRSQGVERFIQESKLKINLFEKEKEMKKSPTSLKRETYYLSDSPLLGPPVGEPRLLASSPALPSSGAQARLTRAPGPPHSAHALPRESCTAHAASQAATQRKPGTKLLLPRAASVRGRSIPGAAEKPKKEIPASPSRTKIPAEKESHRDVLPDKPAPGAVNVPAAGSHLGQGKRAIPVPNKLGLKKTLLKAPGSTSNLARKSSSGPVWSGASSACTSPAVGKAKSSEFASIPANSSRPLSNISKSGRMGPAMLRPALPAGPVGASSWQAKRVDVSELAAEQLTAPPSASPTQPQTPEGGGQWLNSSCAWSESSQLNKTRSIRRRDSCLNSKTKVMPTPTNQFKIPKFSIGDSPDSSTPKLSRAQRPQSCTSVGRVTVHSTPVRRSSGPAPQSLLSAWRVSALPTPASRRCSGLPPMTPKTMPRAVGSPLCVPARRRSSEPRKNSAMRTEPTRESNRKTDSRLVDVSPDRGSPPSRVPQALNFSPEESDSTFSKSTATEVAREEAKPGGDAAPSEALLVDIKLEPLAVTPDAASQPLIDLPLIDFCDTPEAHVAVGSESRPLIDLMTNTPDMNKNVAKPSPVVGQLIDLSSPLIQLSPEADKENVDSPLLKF
UniProt Q9NVS9: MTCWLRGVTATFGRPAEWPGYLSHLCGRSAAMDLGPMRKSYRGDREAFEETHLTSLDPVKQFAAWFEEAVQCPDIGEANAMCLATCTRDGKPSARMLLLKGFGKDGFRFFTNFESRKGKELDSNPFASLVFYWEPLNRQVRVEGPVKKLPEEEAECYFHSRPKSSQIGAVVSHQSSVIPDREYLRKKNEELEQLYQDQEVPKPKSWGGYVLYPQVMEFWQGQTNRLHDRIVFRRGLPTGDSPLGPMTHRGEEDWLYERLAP

Compound: CCc1cnccc1C(=O)Nc1cc2c(cc1F)NC(=O)CC2
Assay: melting temperature shift (DMSO Tm minus MBE1-treated Tm) in cellular thermal proteome profiling; higher = less thermal stabilization by MBE1 (negative = stabilized by MBE1)
Details: A375

Target | melting temperature shift (MBE1 concentration: 100 nM) [°C] | melting temperature shift (MBE1 concentration: 1 uM) [°C]
NKIRAS2 (UniProt Q9NYR9) | 2.12 | 
UniProt Q9NXF1 | -2.55 | -4.4
UniProt Q9NW81 | 0.57 | 
MALT1 (UniProt Q9UDY8) | -1.11 | -0.725
MBD2 (UniProt Q9UBB5) | -0.829 | 0.588
UniProt Q9P0U3 |  | -0.48
UniProt Q9NW97 |  | -3
UniProt Q9NYL4 | -2.04 | 1.11
UniProt Q9P0S2 | -2.23 | -3.75
UniProt Q9UDX5 | -3.28 | -3.76
CCDC59 (UniProt Q9P031) | -1.48 | 0.891
UniProt Q9NZU0 | -0.742 | 0.0611
UniProt Q9UBN7 | 1.31 | 0.879
UniProt Q9NXE8 | -2.67 | -0.496
DTL (UniProt Q9NZJ0) | 0.656 | -0.353
CLIP2 (UniProt Q9UDT6) | 0.537 | 0.318
TFIP11 (UniProt Q9UBB9) | -0.442 | -0.378
CHMP5 (UniProt Q9NZZ3) | -4.17 | -4.39
TMEM181 (UniProt Q9P2C4) | -4.33 | -4.33
DNAJC11 (UniProt Q9NVH1) | -0.959 | -0.215
FAM120A (UniProt Q9NZB2) | -0.402 | 0.443
UniProt Q9NWM3 | -2.43 | -0.337
UniProt Q9UBG0 | -1.09 | 0.682

Target | melting temperature shift (MBE1 concentration: 100 nM) [°C] | melting temperature shift (MBE1 concentration: 1 uM) [°C]
UCKL1 (UniProt Q9NWZ5) | 1.26 | 0.0855
ANKFY1 (UniProt Q9P2R3) | 0.047 | 0.221
CALCOCO1 (UniProt Q9P1Z2) | 0.837 | -0.421
DNAJB12 (UniProt Q9NXW2) | -0.397 | 0.769
SMPD4 (UniProt Q9NXE4) | 1.92 | 0.824
UniProt Q9NVM1 | -5.27 | -2.14
QPCTL (UniProt Q9NXS2) | 0.0738 | -0.16
MRPL15 (UniProt Q9P015) | 1.2 | 0.788
UniProt Q9P2X0 | 1.11 | 1.5
FAM120C (UniProt Q9NX05) | 0.916 | 0.525
GLTSCR2 (UniProt Q9NZM5) | -1.76 | -0.496
NCKIPSD (UniProt Q9NZQ3) | -1.25 | -0.179
FTSJ1 (UniProt Q9UET6) | -1.07 | 0.702
TAB2 (UniProt Q9NYJ8) | -0.654 | -0.823
SPG21 (UniProt Q9NZD8) | 0.202 | -0.641
VAPA (UniProt Q9P0L0) | -1.05 | 0.324
COMMD9 (UniProt Q9P000) | -0.228 | 0
UniProt Q9NYJ1 | 0 | 0
THUMPD1 (UniProt Q9NXG2) | -1.56 | 0.824
FANCI (UniProt Q9NVI1) | -0.372 | -0.128
SIPA1L2 (UniProt Q9P2F8) | -1.69 | -1.6
UniProt Q9NVH6 | -0.624 | -2.58
UniProt Q9UBX3 | -0.458 | 0.14

Target | melting temperature shift (MBE1 concentration: 100 nM) [°C] | melting temperature shift (MBE1 concentration: 1 uM) [°C]
BRE (UniProt Q9NXR7) | -1.02 | 0.531
UniProt Q9P2N6 | 0.855 | 1.14
OGFR (UniProt Q9NZT2) | -0.756 | -0.237
UniProt Q9NYL2 | -0.295 | 0.161
UniProt Q9NXR8 | -1.59 | 0.0192
GNL3L (UniProt Q9NVN8) | -0.474 | -0.602
UniProt Q9P2S5 | -0.385 | 2.07
UniProt Q9P1U1 | -2.82 | 0.125
BABAM1 (UniProt Q9NWV8) | -1.07 | 0.691
UGGT2 (UniProt Q9NYU1) | -0.342 | 0.165
RNF14 (UniProt Q9UBS8) | 1.05 | 0.238
ANO10 (UniProt Q9NW15) | -0.489 | 0.513
ORC3 (UniProt Q9UBD5) | -0.327 | -0.186
DNAJC17 (UniProt Q9NVM6) | 0.812 | 0.256
NHP2 (UniProt Q9NX24) | 1.04 | 1.7
NKIRAS1 (UniProt Q9NYS0) | 0.539 | 0.71
UniProt Q9UBK7 | 0.4 | -0.843
UniProt Q9NZW5 | 0.751 | -0.00611
HYPK (UniProt Q9NX55) | -2.89 | -0.0855
RRN3 (UniProt Q9NYV6) | -1.31 | -0.349
COMMD3 (UniProt Q9UBI1) | 1.25 | 0.275
DNAJB4 (UniProt Q9UDY4) | -1.06 | -0.0672
FGFR1OP2 (UniProt Q9NVK5) | 0.556 | -0.507

Target | melting temperature shift (MBE1 concentration: 100 nM) [°C] | melting temperature shift (MBE1 concentration: 1 uM) [°C]
UBA2 (UniProt Q9UBT2) | -0.585 | 0.0611
VTI1B (UniProt Q9UEU0) | -3.41 | -3.5
CISD1 (UniProt Q9NZ45) | -1.97 | -3.5
GTSE1 (UniProt Q9NYZ3) | -4.84 | 5.95
IMPACT (UniProt Q9P2X3) | -0.874 | -0.785
TMEM160 (UniProt Q9NX00) | -1.5 | -3.54
PNPO (UniProt Q9NVS9) | -0.235 | -0.235
UniProt Q9P1Y6 | -1.53 | -0.249
UniProt Q9NXL9 | -0.177 | 1.17
CFAP97 (UniProt Q9P2B7) | 2.4 | 1.35
GNG12 (UniProt Q9UBI6) | -0.464 | -0.696
UniProt Q9UFG5 | -2.24 | -5.56
EIF2AK3 (UniProt Q9NZJ5) | -2.63 | -2.16
IBTK (UniProt Q9P2D0) | 1.06 | 0.934
DNAJB11 (UniProt Q9UBS4) | -1.88 | -0.409
DNAAF2 (UniProt Q9NVR5) | -0.153 | -0.415
EIF3K (UniProt Q9UBQ5) | 0.0733 | 0.11
GDE1 (UniProt Q9NZC3) | -3.64 | -2.45
GPATCH2 (UniProt Q9NW75) | -4.05 | 0.262
UniProt Q9P2L0 | -0.536 | -0.447
EMC3 (UniProt Q9P0I2) | -0.523 | 0.657
MTRR (UniProt Q9UBK8) | 0.379 | -0.824
UQCR10 (UniProt Q9UDW1) | -1.65 | 0.11
